Results on 61 molecules are retold here after PubChem BioAssay AID445 (National Center for Advancing Translational Sciences (NCATS), 2006).

The structures appear in SMILES notation. “And” between values parts separate entries of the source, which are not always exact repeats. Identical values can stand only once. The list shows a part of the results. The main result of the screen is listed elsewhere. These columns were measured beside it and carry no call. Most of these compounds were active or inconclusive in the main read-out, so they are no random draw. Potencies come from curve fits of mixed quality, noted in brackets.

The experiment is described as follows: IkB Signaling. The settings on record: ABC-DLBCL IkBa-CBG/CBR dual luciferase ratio (green luciferase fused to IkBa over red control in OCI-Ly3 lymphoma cells), 4 h. In outline:
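Curves were fitted separately to fusion (green), unfused (red) and ratio luminescence, then classed by r2, magnitude and activity. Cells: OCI-Ly3, 4 h compound plus doxycycline at 37C; 10 uM MG-132 defined full response.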

[1] abbreviates: measured here: control luc red channel unless noted.

Take `O=C(Nc1nnc(C2CC2)s1)c1cc(-c2ccccc2)nn1-c1ccccc1`: the concentration at half-maximal activity (AC50) under setting [1] is 20 µM [falling, partial curve]. The same measure, in the same setting: as for `Cc1ccc(C)c(N2CCN(c3ncnc4onc(C)c34)CC2)c1`, the figure is 25.1 µM [falling, partial curve]. The same measure, in the same setting: as for `COc1ccccc1CCNC(=O)Cc1c(C)c2ccc(O)cc2oc1=O`, the figure is 12.6 µM [falling, partial curve]. Still for that read-out and setting: the same measure for `CC(=O)Nc1nonc1-c1nnc(SCC(=O)Nc2cc(C)ccc2C)n1-c1ccccc1`: 3.16 µM [falling, single point]; for `Cc1cccc(CC(=O)NC2CC(=O)N(c3cccc(F)c3)C2)c1` (configuration not stated): 0.794 µM [falling, partial curve]. Consider `O=C(NC(Cc1ccccc1)c1nc2ccccc2[nH]1)C1CC(=O)N(c2ccc3c(c2)OCCO3)C1` (configuration not stated), for which the AC50 under setting [1] was 15.8 µM [falling, partial curve]. In the case of `COc1ccc(OC)c(NC(=O)C2CCN(S(=O)(=O)c3ccc(C)cc3)CC2)c1`, the AC50 under setting [1] is 1.26 µM [falling, full curve]. Still for that read-out and setting: the same measure for `COCCNC(=O)CSc1nc(-c2ccc(F)cc2)[nH]c1-c1ccc(Cl)cc1`: 20 µM [falling, single point]; for `Cc1cc(C)cc(OCC(=O)Nc2cccc(-c3nc4ncccc4o3)c2)c1`: 5.01 µM [falling, full curve]. Same read-out and setting: as for `CCOc1ccc(C(=O)Nc2ccc(S(=O)(=O)N(Cc3ccccc3)c3ccccc3)cc2)cc1`, the figure is 1.26 µM [falling, full curve, poor fit]; as for `O=C(c1ccco1)N1CCN(c2ncnc3sc4c(c23)CCC4)CC1`, 25.1 µM [falling, partial curve]. On the same count and under the same terms, the same measure for `O=C(CSc1nc2cc3ccccc3cc2[nH]1)Nc1cccc(C(F)(F)F)c1`: 20 µM [falling, single point]; for `COc1ccc(NC(=O)C(=O)NCCc2ccccc2)cc1OC`: 10 µM [rising, partial curve]; for `CN1/C(=C\C(=O)c2ccco2)C(C)(C)c2ccccc21`: 25.1 µM [falling, single point].

With `CC(C)c1ccc(NC(=O)C2CCCN(S(=O)(=O)c3ccc(Br)s3)C2)cc1` (configuration not stated), the AC50 under setting [1] is 31.6 µM [falling, partial curve, poor fit]. Same read-out and setting: as for `CCc1ccc(NS(=O)(=O)c2ccc3[nH]cc(C(=O)NC4CCCC4)c(=O)c3c2)cc1`, the figure is 10 µM [falling, partial curve]. Same read-out and setting: as for `COc1ccc(-n2cc(-c3ccccc3)c3c(SC(C)C(C)=O)ncnc32)cc1` (configuration not stated), the figure is 10 µM [falling, partial curve]; as for `Fc1ccc(-c2cc(-c3nc(-c4cccc(Cl)c4)no3)[nH]n2)cc1`, 0.251 µM [falling, full curve]; as for `CCOC(=O)c1c(N)sc(C(=O)Nc2ccc3c(c2)OCO3)c1C`, 10 µM [falling, partial curve]. For `COc1cc(OC)c(OC)cc1CN1CCc2nc(N3CCN(c4ncccn4)CC3)ncc2C1`, the AC50 under setting [1] was 15.8 µM [falling, partial curve, poor fit]. Still for that read-out and setting: as for `CCN1CCN(C(=O)c2ccc3c(c2)N(Cc2cccc(Cl)c2)C(=O)c2ccccc2S3(=O)=O)CC1`, the figure is 10 µM [falling, partial curve]; as for `COc1ccc(-c2noc(C3CC(=O)N(c4ccc(C)c(F)c4)C3)n2)c(OC)c1` (configuration not stated), 39.8 µM [falling, single point]; as for `O=C(Nc1ccc(C(F)(F)F)cc1)C1CCCN1S(=O)(=O)c1cccc2cccnc12` (configuration not stated), 12.6 µM [falling, partial curve].

With `Cc1cc(C)n(-c2nnc(C)n2/N=C/c2cc(Br)ccc2OCc2ccccc2)n1`, the AC50 under setting [1] is 10 µM [falling, partial curve]. For the molecule `COc1ccc(-c2nnc(Nc3ccc(OCC(N)=O)cc3)c3ccccc23)cc1`, the AC50 under setting [1] is 20 µM [falling, single point].

For the molecule `O=C(CSc1nc(=O)[nH]c2c1CCCC2)Nc1cc(C(F)(F)F)ccc1Cl`, the AC50 under setting [1] is 31.6 µM [falling, single point]. In the case of `COc1cc([C@H]2c3cc4c(cc3[C@@H](O)[C@@H]3COC(=O)[C@H]23)OCO4)cc(OC)c1OC`, the AC50 runs as follows: (measured here: IkB-luc green channel) 31.6 nM [rising, full curve] and 25.1 nM [rising, full curve]; (measured here: control luc red channel) 15.8 nM [rising, full curve] and 20 nM [rising, full curve].

Take `Cc1cc(C)n(-c2nc3ccccc3nc2Nc2cccc(C(F)(F)F)c2)n1`: under setting [1], the AC50 was 10 µM [falling, partial curve]. Same read-out and setting: the same measure for `O=C1CCSC2(C(=O)N(Cc3ccc(F)cc3)c3ccccc32)N1c1ccccc1` (configuration not stated): 31.6 µM [falling, partial curve]; for `O=C(c1ccc(COc2ccccc2Cl)o1)N1CCN(Cc2ccc3c(c2)OCO3)CC1`: 15.8 µM [falling, partial curve]; for `Cc1nc2cc(-c3cccc(F)c3)nn2c(C)c1CCC(=O)NC1CCCCC1`: 0.251 µM [falling, full curve]. For `COc1ccc(C(=O)CCC(=O)Nc2cccc(C(C)=O)c2)cc1`, under setting [1], the AC50 is 31.6 µM [falling, single point]. Same read-out and setting: as for `Cc1ccc(Cn2c(=O)n(Cc3ccc(Cl)cc3)c(=O)c3cccnc32)cc1`, the figure is 0.316 µM [rising, partial curve].

On to `Cc1cc2oc(C(=O)Nc3nc(-c4ccccc4)ns3)c(C)c2cc1Cl`, for which, under setting [1], the AC50 was 39.8 µM [falling, single point]. As to `CC(=O)c1ccc(NS(=O)(=O)c2ccc3[nH]c4c(c3c2)CCCCCC4)cc1`, under setting [1], the AC50 is 39.8 µM [falling, single point].

As for `CN1CCN(CCCN2c3ccccc3Sc3ccc(Cl)cc32)CC1`, the AC50 under setting [1] was 15.8 µM [falling, partial curve, poor fit] [measured here: IkB-luc green channel].

Turning to `CCCCN(C)CCNC(=O)C1CCN(c2nc3ccc(CC)cc3s2)CC1`, the AC50 under setting [1] is 15.8 µM [falling, partial curve]. Turning to `COc1ccc(N2CCN(C(=O)c3cccc(Cn4cc(Cl)cn4)c3)CC2)cc1`, the AC50 under setting [1] is 12.6 µM [falling, partial curve].

Regarding `Cc1ccc(C)n1-n1c(C)nc2sc3c(c2c1=O)CCCCC3`, the AC50 under setting [1] is 31.6 µM [falling, single point]. The same measure, in the same setting: the same measure for `CCOC(=O)c1ccc(Nc2cc(C)nc(N3CCOCC3)n2)cc1`: 12.6 µM [falling, partial curve]. Still for that read-out and setting: the same measure for `COc1ccc(C(c2c(O)cc(C)n(Cc3ccco3)c2=O)N2CCN(c3ccccc3)CC2)cc1` (configuration not stated): 15.8 µM [falling, partial curve]; for `Cc1ccccc1-n1nc(CO)c(C(=O)NCCc2ccccc2)n1`: 39.8 µM [falling, single point]. The same measure, in the same setting: the same measure for `CC1CCc2c(sc(NC(=O)c3ccccc3)c2C(=O)Nc2ccccc2)C1` (configuration not stated): 0.251 µM [falling, full curve]. Take `COc1ccc(OC)c(CNc2ncnc3onc(-c4ccc(Cl)cc4)c23)c1`: the AC50 under setting [1] was 3.16 µM [rising, single point]. As for `CCC(c1nnnn1CCc1ccccc1)N(Cc1ccco1)Cc1cc2cc(C)cc(C)c2[nH]c1=O` (configuration not stated), the AC50 under setting [1] is 10 µM [falling, partial curve]. For the molecule `COc1ccc(CCNC(=O)c2cc3c(=O)n4ccccc4nc3n2C)cc1`, the AC50 under setting [1] is 12.6 µM [falling, partial curve]. With `COc1ccc(NC(=O)Cn2cc(S(=O)(=O)c3ccccc3)c(=O)c3cc(C)ccc32)cc1Cl`, the AC50 under setting [1] is 7.94 µM [rising, single point]. The same measure, in the same setting: the same measure for `Cc1ccc2oc(-c3ccc(NC(=O)c4cccnc4)cc3)nc2c1`: 15.8 µM [falling, partial curve]. On the same count and under the same terms, as for `COc1cccc(N2CCN(C(=O)c3ccc4c(Cl)c5c(nc4c3)CCCC5)CC2)c1`, the figure is 12.6 µM [falling, partial curve]; as for `CCC(=O)N1CCc2cc(Br)cc(S(=O)(=O)N3CCC(C(=O)Nc4cccc(C)c4)CC3)c21`, 1.26 µM [falling, full curve].

As to `O=C(CSc1nnc2scc(-c3ccccc3)n12)N1CCN(Cc2ccccc2)CC1`, under setting [1], the AC50 was 12.6 µM [falling, partial curve]. Still for that read-out and setting: the same measure for `COc1cccc(NC(=O)Cn2nc(-c3ccncc3)ccc2=O)c1`: 0.2 µM [falling, full curve, poor fit]; for `CCOc1ccc(NC(=O)C(=O)NCCc2sc(-c3ccc(C)cc3)nc2C)cc1`: 15.8 µM [rising, partial curve]; for `CC(C)c1ccc(C(=O)CC2(O)C(=O)N(CCc3ccccc3)c3ccc(Cl)cc32)cc1` (configuration not stated): 12.6 µM [falling, partial curve]. On the same count and under the same terms, as for `COc1ccc(OC)c(NC(=O)C2CCN(S(=O)(=O)c3c(C)noc3/C=C/c3ccc(C)cc3)CC2)c1`, the figure is 2.51 µM [falling, full curve]; as for `CC(C)(C)/C(O)=C(/C#N)c1nc2ccccc2[nH]1`, 25.1 µM [falling, single point]; as for `Cc1cccc(Cn2c(CN3CCC(C(=O)NCc4ccccc4Cl)CC3)cc3ccccc32)c1`, 0.398 µM [falling, full curve, poor fit]. Consider `Cc1ccc(C(=O)Nc2cc(-c3nc4cc(Cl)ccc4o3)ccc2C)c(C)c1`, for which the AC50 under setting [1] was 5.01 µM [falling, partial curve].

Regarding `COc1ccc(Cn2c(CNS(=O)(=O)c3ccc(Cl)s3)nc3cccnc32)cc1`, the AC50 under setting [1] is 1 µM [rising, single point]. For `COc1ccc(CN2CCc3nc(N4CCN(c5ccc(F)cc5)CC4)ncc3C2)c(OC)c1OC`, under setting [1], the AC50 was 20 µM [falling, single point]. Take `O=C(c1cnn(-c2ccc(F)cc2)c1-n1cccc1)N1CCN(c2cccc(Cl)c2)CC1`: under setting [1], the AC50 is 12.6 µM [falling, partial curve].
